Laboratory results reported in patent publication US20250326855A1 (GO THERAPEUTICS, published 2025).
Results are given in words; binding and its absence hold for the method and conditions named. Where no end group is shown, it is not given here. GalNAc = O-linked GalNAc (Tn antigen, GalNAc-alpha1-O-Ser/Thr)

By UniProt entry, the sequences of proteins in these tests, tags left out. Residues count along the entry.
UniProt P15941, residues 138-197: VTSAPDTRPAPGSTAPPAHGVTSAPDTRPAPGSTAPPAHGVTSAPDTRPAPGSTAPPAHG

What was measured:
[1] = biological target: Tn-glycosylated MUC1 (UniProt P15941); experiment: ELISA, antibody fixed at 1 ug/ml, coated antigen titrated, absorbance 450 nm
[2] = biological target: Tn-glycosylated MUC1 (UniProt P15941); experiment: ELISA, antigen coated

Row | Binder | binding [1] | binding [2]
1 | 4C8 monoclonal antibody (antibody, V domains shown, Murine hybridoma antibody; also called 4C8 mAb; mAb 4C8) VH: QVQLQQPGSELVRPGASVKLSCKASGYTFTSYWMHWVKQRPGQGLEWIGNIYPRSGTTNYDGYFKSKATLTVDTSSSTAYMQLSSLTSEDSAVYFCTRSGYDYPFVYWGQGTLVTVSA VL: QAVVTQESALTTSPGETVTLTCRTSTGAVSIRNYANWVQEKPDHLFTGLIGGTNNRAPGVPARFSGSLIGDKAALTITGAQPEDEAIYFCALLYSNYWVFGGGTKLTVL | no binding (tested: 1000 ug/ml) | no binding (tested: 1 µg/mL 4C8 mAb)
2 | humanized 4C8 candidate 6 (4C8-HV1-46-A/LV7-46-A) (antibody, V domains shown, also called Molecule Number 6) VH: QVQLVQSGAEVKKPGASVKVSCKASGYTFTSYWMHWVRQAPGQGLEWIGNIYPRSGTTNYDGYFKSRATLTVDTSTSTAYMELSSLRSEDTAVYFCTRSGYDYPFVYWGQGTLVTVSS VL: QAVVTQEPSLTVSPGGTVTLTCRTSTGAVSIRNYANWVQEKPGQAFRGLIGGTNNRAPWTPARFSGSLLGDKAALTLSGAQPEDEAEYFCALLYSNYWVFGGGTKLTVL | – | no binding (tested: 1 µg/mL antibody)
3 | humanized 4C8 candidate 7 (4C8-HV1-69-A/LV7-46-A) (antibody, V domains shown, also called Molecule Number 7) VH: QVQLVQSGAEVKKPGSSVKVSCKASGYTFTSYWMHWVRQAPGQGLEWIGNIYPRSGTTNYDGYFKSRATLTVDTSTSTAYMELSSLRSEDTAVYFCTRSGYDYPFVYWGQGTLVTVSS VL: QAVVTQEPSLTVSPGGTVTLTCRTSTGAVSIRNYANWVQEKPGQAFRGLIGGTNNRAPWTPARFSGSLLGDKAALTLSGAQPEDEAEYFCALLYSNYWVFGGGTKLTVL | – | no binding (tested: 1 µg/mL antibody)
